Results published in publication PMC9182007, “Statistical Methods in the Study of Protein Binding and Its Relationship to Drug Bioavailability in Breast Milk” (Molecules, 2022).

The chains behind the UniProt entries cited, without tags or fusion partners. Residues count along the entry.
UniProt P02768, 25-609: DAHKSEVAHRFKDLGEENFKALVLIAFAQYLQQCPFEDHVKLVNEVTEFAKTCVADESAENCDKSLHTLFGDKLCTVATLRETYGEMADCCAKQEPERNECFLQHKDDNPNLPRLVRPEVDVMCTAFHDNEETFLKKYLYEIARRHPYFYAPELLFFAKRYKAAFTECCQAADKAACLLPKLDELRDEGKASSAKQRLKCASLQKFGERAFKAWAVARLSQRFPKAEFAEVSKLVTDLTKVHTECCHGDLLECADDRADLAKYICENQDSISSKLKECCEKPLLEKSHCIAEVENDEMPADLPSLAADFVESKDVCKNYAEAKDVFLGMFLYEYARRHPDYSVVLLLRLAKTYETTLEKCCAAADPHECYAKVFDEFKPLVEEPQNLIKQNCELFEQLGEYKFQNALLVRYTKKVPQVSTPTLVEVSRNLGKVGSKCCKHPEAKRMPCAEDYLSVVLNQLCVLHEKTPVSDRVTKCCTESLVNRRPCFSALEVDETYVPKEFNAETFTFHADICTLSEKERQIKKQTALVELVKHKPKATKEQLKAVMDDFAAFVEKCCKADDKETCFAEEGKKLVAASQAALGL

Legend:
[1] = target: T1, human serum albumin (HSA) (Homo sapiens, UniProt P02768); details: pH 7.4
[2] = target: T1, human serum albumin (HSA); assay: in vitro; details: immobilized hsa column, pH 7.4
[3] = HPLC on immobilized artificial membrane column (HPLCIAM); assay type: physicochemical
[4] = RP TLC on non-impregnated control plates; assay type: physicochemical
[5] = tested on: plasma protein; details: Table S1, plasma protein binding given as fraction; ref DrugBank [7]; cited from earlier work
[6] = NP TLC on non-impregnated control plates; assay type: physicochemical; details: Table S3, non-impregnated NP plate; acetonitrile/acetate buffer pH 7.4/methanol 60:20:20

kIAM ([3]; Table S9, external group) | log kIAM ([3]; Table S9, external group) | CRP (Rf value from the non-impregnated RP plate, control) ([4]; Table S8, external group) | Structure (SMILES) | k HSA [1] | chromatographic logD [2] | log k IAM ([3]; Table S5, IAM column, pH 7.4) | k IAM ([3]; Table S5, retention factor, IAM column, phosphate buffer pH 7.4/acetonitrile 80:20) | CRP (Rf, control RP plate) ([4]; Table S4, non-impregnated RP plate, acetonitrile/acetate buffer pH 7.4/methanol 60:20:20) | PB [5] | CNP (Rf, control NP plate) [6]
 |  |  | CCC[C@@H]1C[C@@H](C(=O)N[C@@H]([C@H]2O[C@H](SC)[C@H](O)[C@@H](O)[C@H]2O)[C@H](C)Cl)N(C)C1 [clindamycin] | 1.34 | 0.13 | 1.05 | 11.34 | 0.25 | 0.93 | 0.69
2.91 | 0.46 | 0.76 | CCn1cc(C(=O)O)c(=O)c2cc(F)c(N3CCN(C)CC3)cc21 [pefloxacin] |  |  |  |  |  |  | 
